Assay results published in article PMC6050706.
Results are given in words; binding and its absence hold for the method and conditions named. Some binding calls cover weakened binding; strength is not graded here.

Columns and labels:
Experiment in all cases: peptide or protein array; NAPPA: C-terminally GST-tagged P. vivax fragments expressed in situ from printed cDNA with rabbit reticulocyte lysate and captured by spotted anti-GST polyclonal antibody; 1 µg cDNA of N-terminally Halo-tagged Pv12 (query) co-expressed in the same IVTT mix; 90 min at 30 °C and 30 min at 15 °C; detected with anti-Halo antibody; triplicate arrays, 16 sub-arrays each; median normalized value > 1 taken as positive
[1] = target: Merozoite surface protein 8 (PvMSP8), C-terminal GST tag, on the array (Plasmodium vivax) (UniProt A5KAU1)
[2] = target: 6-Cysteine protein 41 (Pv41), C-terminal GST tag, on the array (Plasmodium vivax) (UniProt A5KAP6)
[3] = target: Merozoite surface protein 1 (PvMSP1) 42 kDa fragment, C-terminal GST tag, on the array (Plasmodium vivax) (UniProt A5K724)

Measured: binding

6-Cysteine protein 12 (Pv12), N-terminal Halo tag, query protein (from UniProt A5K1W7 27-336) (domain or fragment)
binds: all assays above
